# Test results taken from PubChem BioAssay AID540276 (National Center for Advancing Translational Sciences (NCATS), 2011).
# Out of some 300,000 compounds screened, about 5,400 (1.8%) were called active. Inconclusive results, whose numbers are uncertain, are shown with a selection of clear calls. Calls come from the whole dose curve; tested in HEK293 cells. Potencies beside an inconclusive call are fits to weak or partial responses and may not hold up.
# Experiment: qHTS for inhibitors of binding or entry into cells for Marburg Virus
# Settings: Marburg virus pseudotyped entry inhibition, cell reporter; series mostly up to 37.8 µM
# Potency is the fitted concentration of half-maximal effect.
row,Structure (SMILES),Potency
1,Cc1ccc(CC(=O)Nc2nc3ccccc3s2)cc1,"inconclusive: 25.1 µM [inhibitor, single point]"
2,C=CC[C@@H]1C=CC(O/N=C(\C)CCC(=O)OC[C@H]2O[C@H](C#Cc3ccccc3)C=C[C@@H]2Oc2ccc(C)cc2)[C@@H](CO)O1 (stereo partly specified),inactive
3,CC(C)CCn1c(N)c(C(=O)OCC2CCCO2)c2nc3ccccc3nc21 (stereo unspecified),"inconclusive: 22.4 µM [inhibitor, single point]"
4,Cc1ccc(/C=C/C(=O)N2CCN(S(=O)(=O)c3c(C)c(C)cc(C)c3C)CC2)o1,inactive
5,COc1ccccc1N=C1SC(C(=O)Nc2ccc(F)cc2)CC(=O)N1C (stereo unspecified),"inconclusive: 0.316 µM [inhibitor, full curve, poor fit]"
6,O=[N+]([O-])c1cc(/C=N/N2CCN(Cc3ccccc3)CC2)ccc1Cl,"inconclusive: 0.562 µM [activator, full curve, poor fit]"
7,CCCCNC(=S)NC(=O)c1ccc([N+](=O)[O-])cc1,"inconclusive: 35.5 µM [inhibitor, single point]"
8,O=C(Cn1cccn1)N1CCCC(Nc2ccc(F)c(F)c2)C1 (stereo unspecified),"inconclusive: 20 µM [activator, partial curve, poor fit]"
9,CCN(CC)CC#CCC(O)(c1ccccc1)c1ccccc1,"inconclusive: 14.1 µM [inhibitor, partial curve, poor fit]"
10,C/C(=N\O)c1ccc(N2C(=O)C3CC=C(Cl)CC3C2=O)cc1 (stereo unspecified),inactive
11,Cc1onc2c(=O)n(-c3ccccc3)nc(-c3ccccc3)c12,"inconclusive: 11.2 µM [activator, partial curve]"
12,O=C(CC(=O)NN=C1CCCC1)NCCc1ccccc1,inactive
13,Clc1ccc(CNCCCSc2ncccn2)cc1Cl,"inconclusive: 14.1 µM [inhibitor, single point]"
14,CCCCn1c(=O)c(CCC(=O)OCC(=O)Nc2ccc(F)c(Cl)c2)nc2ccccc21,"inconclusive: 2.82 µM [inhibitor, single point]"
15,OCCNc1nc(N2CCN(Cc3ccccc3)CC2)nc2ccccc12,"inconclusive: 18.3 µM [inhibitor, single point]"
16,CC1(C)CC2(CCCN(CC(O)(c3ccccc3)c3ccccc3)C2)CCO1 (stereo unspecified),"inconclusive: 10 µM [inhibitor, partial curve, poor fit]"
17,CCC(=O)Oc1ccc2oc(=O)cc(C)c2c1,"inconclusive: 29.1 µM [activator, single point]"
18,CCOC(=O)NN=C1C[C@@H](O)[C@@H](O)[C@@H]2[C@H]3C(=O)N(CC)C(=O)[C@@H]3CC[C@@H]12,inactive
19,O=C(c1cc(=O)c2cc(Cl)ccc2o1)N(Cc1ccccc1)C1CCS(=O)(=O)C1 (stereo unspecified),"inconclusive: 5.62 µM [inhibitor, partial curve, poor fit]"
20,O=C(CN1C(=O)C2(OCCCO2)c2ccccc21)NCc1ccccc1,inactive
21,CCN(CC)C(=O)CN1C(=O)C2(OCC(C)(C)CO2)c2ccccc21,"inconclusive: 35.5 µM [inhibitor, single point]"
22,O=Cc1nc(-c2ccc(Cl)cc2)n2ccccc12,"inconclusive: 0.82 µM [inhibitor, partial curve, poor fit]"

# An excerpt of these results, as tab-separated lines:
row	Structure (SMILES)	Potency
4	Cc1ccc(/C=C/C(=O)N2CCN(S(=O)(=O)c3c(C)c(C)cc(C)c3C)CC2)o1	inactive
5	COc1ccccc1N=C1SC(C(=O)Nc2ccc(F)cc2)CC(=O)N1C (stereo unspecified)	inconclusive: 0.316 µM [inhibitor, full curve, poor fit]
6	O=[N+]([O-])c1cc(/C=N/N2CCN(Cc3ccccc3)CC2)ccc1Cl	inconclusive: 0.562 µM [activator, full curve, poor fit]
7	CCCCNC(=S)NC(=O)c1ccc([N+](=O)[O-])cc1	inconclusive: 35.5 µM [inhibitor, single point]
8	O=C(Cn1cccn1)N1CCCC(Nc2ccc(F)c(F)c2)C1 (stereo unspecified)	inconclusive: 20 µM [activator, partial curve, poor fit]
9	CCN(CC)CC#CCC(O)(c1ccccc1)c1ccccc1	inconclusive: 14.1 µM [inhibitor, partial curve, poor fit]
10	C/C(=N\O)c1ccc(N2C(=O)C3CC=C(Cl)CC3C2=O)cc1 (stereo unspecified)	inactive
11	Cc1onc2c(=O)n(-c3ccccc3)nc(-c3ccccc3)c12	inconclusive: 11.2 µM [activator, partial curve]
12	O=C(CC(=O)NN=C1CCCC1)NCCc1ccccc1	inactive
13	Clc1ccc(CNCCCSc2ncccn2)cc1Cl	inconclusive: 14.1 µM [inhibitor, single point]
14	CCCCn1c(=O)c(CCC(=O)OCC(=O)Nc2ccc(F)c(Cl)c2)nc2ccccc21	inconclusive: 2.82 µM [inhibitor, single point]
15	OCCNc1nc(N2CCN(Cc3ccccc3)CC2)nc2ccccc12	inconclusive: 18.3 µM [inhibitor, single point]
16	CC1(C)CC2(CCCN(CC(O)(c3ccccc3)c3ccccc3)C2)CCO1 (stereo unspecified)	inconclusive: 10 µM [inhibitor, partial curve, poor fit]
17	CCC(=O)Oc1ccc2oc(=O)cc(C)c2c1	inconclusive: 29.1 µM [activator, single point]

# (list continues)

row,Structure (SMILES),Potency
1,CNC(=O)COC(=O)c1ccc2c(c1)S(=O)(=O)c1ccccc1C2=O,"inconclusive: 0.631 µM [inhibitor, full curve, poor fit]"
2,COc1ccc(S(=O)(=O)n2nc(-n3c(C)ccc3C)c3c(F)cccc32)cc1OC,active: 8.91 µM
3,CCOC(=O)N1CCN(C(=O)CCSc2ccc(Cl)cc2)CC1,"inconclusive: 2.31 µM [activator, partial curve, poor fit]"
4,O=C(ONC1=NCCCCC1)c1ccc(Cl)cc1,"inconclusive: 22.4 µM [inhibitor, partial curve, poor fit]"
5,Nc1ccccc1Oc1c(F)c(F)c(Oc2ccccc2N)c(F)c1F,"inconclusive: 5.01 µM [inhibitor, full curve, poor fit]"
6,CN(C)CCCN(C(=O)c1ccc(S(=O)(=O)N(C)Cc2ccccc2)cc1)c1nc2c(F)cccc2s1,"inconclusive: 5.62 µM [activator, single point]"
7,CN(C)c1ccc(N=Cc2cccn2C)cc1,"inconclusive: 10 µM [inhibitor, partial curve, poor fit]"
8,CC(=O)NC(CC(=O)NNC(=O)COc1c(C)cccc1C)c1ccccc1 (stereo unspecified),inactive
9,CN1N=C2c3ccccc3CCC2C1c1ccc(F)cc1 (stereo unspecified),"inconclusive: 15.8 µM [activator, single point]"
10,CC(C(=O)N1CCc2ccccc21)N1CCc2ccccc2C1 (stereo unspecified),inactive
11,CC(=O)C1=C(C)NC(SCC(=O)c2ccc(Cl)cc2Cl)=C(C#N)C1c1ccco1 (stereo unspecified),inactive
12,CCCNC(=O)N(C)c1nncnc1C(=O)NC,"inconclusive: 0.184 µM [inhibitor, single point]"
13,COc1cccc(N/N=C(\C#N)S(=O)(=O)C(C)(C)C)c1,inactive
14,COc1ccnc(CSC(N)=Nc2cccc(C(F)(F)F)c2)c1,inactive
15,Cn1c(=O)c(C(=O)CSc2nnc(Nc3ccccc3)s2)c(N)n(Cc2ccccc2)c1=O,inactive
16,O=C(N/N=C/c1ccc[nH]1)c1ccc(O)cc1,"inconclusive: 6.31 µM [activator, partial curve, poor fit]"
17,O=C(O)c1ccccc1/C=N/n1c(C2CCCCC2)n[nH]c1=S,"inconclusive: 0.794 µM [inhibitor, full curve, poor fit]"
18,COc1ccc(C(C)=O)cc1CN1C(=O)NC2(CCCC2)C1=O,"inconclusive: 35.5 µM [activator, single point]"
19,CC1CCCN(CCCNC(=O)C2CCCN(c3ncnc4c3nc3n4CCCCC3)C2)C1 (stereo unspecified),"inconclusive: 22.4 µM [inhibitor, single point]"
20,CCN1CCN(c2ccc(NC(=O)COc3ccccc3Cl)cc2)CC1,"inconclusive: 7.3 µM [inhibitor, partial curve, poor fit]"
21,CCCN(CCC)C(=O)CSc1nc2ccsc2c(=O)n1NC(=O)c1ccccc1,inactive
22,Cc1ccc(Cl)cc1NC(=O)COC(=O)c1ccc(COc2ccc3c(C)cc(=O)oc3c2)cc1,inactive

row,Structure (SMILES),Potency
1,O=C(NCC1CCCO1)C1CCCN1C(=O)Nc1ccc(Cl)c(Cl)c1 (stereo unspecified),"inconclusive: 1.12 µM [inhibitor, partial curve, poor fit]"
2,CS(=O)(=O)Nc1cccc(S(=O)(=O)N2CCN(C(=O)c3ccccc3)CC2)c1,"inconclusive: 10 µM [activator, partial curve]"
3,OC[C@H]1O[C@@H](n2cnc3c(NC4CCCCC4)ncnc32)[C@H](O)[C@@H]1O,"inconclusive: 29.1 µM [activator, partial curve, poor fit]"
4,O=C(O)C1C2C=CC(C2)C1C(=O)NCc1ccoc1 (stereo unspecified),"inconclusive: 3.55 µM [activator, partial curve, poor fit]"
5,COc1cc(NC(=O)c2cc(-c3cccnc3)nc3ccc(Br)cc23)cc(OC)c1,"inconclusive: 2.24 µM [inhibitor, single point]"
6,COc1ccc(C)cc1S(=O)(=O)Nc1ccc(F)cc1,"inconclusive: 0.355 µM [inhibitor, full curve, poor fit]"
7,O=C(O)CNc1nc(-c2ccccc2)nc2ccccc12,inactive
8,O=C1C2CC=CCC2C(=O)N1c1ccc(N2CCN(c3ccccn3)CC2)c([N+](=O)[O-])c1 (stereo unspecified),"inconclusive: 14.1 µM [activator, partial curve, poor fit]"
9,CCC(=O)Nc1ccc(NC(=S)NC(=O)Cc2ccccc2)cc1,"inconclusive: 14.6 µM [activator, partial curve, poor fit]"
10,CN(Cc1cnccn1)Cc1ccccc1OCC(O)CN1CCc2ccccc2C1 (stereo unspecified),"inconclusive: 11.2 µM [inhibitor, single point]"
11,Cc1ccc(-c2nn3c(C)nnc3c3ccccc23)cc1S(=O)(=O)N1CCN(CCO)CC1,"inconclusive: 0.461 µM [activator, partial curve, poor fit]"
12,O=C(O)CSc1nnc(-c2ccccc2)o1,inactive
13,Cc1c(NC(=O)CSc2nc(N)cc(N)n2)c(=O)n(-c2ccccc2)n1C,inactive
14,COc1cccc(C(=O)Nc2ccc(Cl)c(-c3nc4ccccc4[nH]3)c2)c1,"inconclusive: 10 µM [inhibitor, partial curve, poor fit]"
15,CCOc1ccc(N2CC(NC(=O)c3ccc4ccccc4c3)CC2=O)cc1 (stereo unspecified),"inconclusive: 6.31 µM [inhibitor, partial curve, poor fit]"
16,CCOC(=O)c1ccccc1NC(=O)N1CCn2c(C)ccc2C1CC (stereo unspecified),"inconclusive: 15.8 µM [inhibitor, partial curve, poor fit]"
17,CSc1nc(C)cc(Nc2c(C)cc(C)cc2C)n1,inactive
18,COc1ccc(CC(=O)Nc2c3c(nn2-c2cccc(Cl)c2)CS(=O)(=O)C3)cc1,"inconclusive: 20.6 µM [inhibitor, partial curve, poor fit]"
19,COC(=O)C1=CNC=C(C(=O)OC)C1c1ccc(C(=O)OC)cc1,"inconclusive: 0.073 µM [inhibitor, full curve, poor fit]"
20,Cn1nnnc1SCCNCc1ccccc1OCc1ccccc1F,"inconclusive: 10 µM [inhibitor, partial curve, poor fit]"
21,CCn1c(CCC(=O)N(C)CC(=O)Nc2cccc(F)c2)nc2cc(S(=O)(=O)N(C)C)ccc21,inactive
22,COCCn1c(SC(C)C(=O)Nc2ncc(Cl)cc2Cl)nc2ccccc21 (stereo unspecified),active: 2 µM
